Reference: publication PMC5399287
Like-named read-outs stand apart in the source and are kept apart here. These are yes or no findings as the source states them, for the method shown. In cells and extracts the contact can be indirect. For some of these results: Binding can be weak; no strength is given.

By UniProt entry, the sequences of proteins in these tests, tags left out. Where a name states a change or a piece, a line headed by the entry shows the natural chain unless it says otherwise. Residues count along the entry.
UniProt P28301: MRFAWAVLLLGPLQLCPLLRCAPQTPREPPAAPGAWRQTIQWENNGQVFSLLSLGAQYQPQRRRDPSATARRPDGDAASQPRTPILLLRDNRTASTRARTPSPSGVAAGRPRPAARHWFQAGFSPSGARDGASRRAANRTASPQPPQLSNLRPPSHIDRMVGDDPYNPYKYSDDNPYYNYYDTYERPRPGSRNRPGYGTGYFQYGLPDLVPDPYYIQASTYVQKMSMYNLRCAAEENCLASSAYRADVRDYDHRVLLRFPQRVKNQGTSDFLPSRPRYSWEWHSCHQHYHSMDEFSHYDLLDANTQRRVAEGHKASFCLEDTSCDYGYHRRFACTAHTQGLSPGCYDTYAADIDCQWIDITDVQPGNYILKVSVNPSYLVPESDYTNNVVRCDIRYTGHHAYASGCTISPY
UniProt Q92743, residues 23-480: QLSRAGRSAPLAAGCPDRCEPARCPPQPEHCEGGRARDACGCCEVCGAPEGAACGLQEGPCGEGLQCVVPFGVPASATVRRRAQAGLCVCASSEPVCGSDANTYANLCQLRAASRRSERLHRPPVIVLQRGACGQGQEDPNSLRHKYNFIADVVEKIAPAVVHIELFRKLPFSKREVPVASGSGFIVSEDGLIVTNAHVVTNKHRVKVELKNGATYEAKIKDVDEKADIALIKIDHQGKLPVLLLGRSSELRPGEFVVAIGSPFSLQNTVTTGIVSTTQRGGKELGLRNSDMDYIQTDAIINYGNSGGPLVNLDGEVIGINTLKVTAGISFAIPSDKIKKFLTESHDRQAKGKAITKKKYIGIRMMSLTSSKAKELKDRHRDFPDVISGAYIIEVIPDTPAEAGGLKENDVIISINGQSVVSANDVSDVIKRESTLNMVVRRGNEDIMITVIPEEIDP

What was measured:
Test in all cases: co-IP; GFP fusion proteins precipitated with GFP-Trap agarose beads from culture medium of stably expressing MDA-MB-231 cells; co-precipitated MATN2 or HTRA1 by western blot
[1] = biological target: LOX-GFP (wild-type lysyl oxidase fused to GFP) (mouse) (UniProt P28301)
[2] = biological target: LOX^K314A-GFP (catalytically inactive mutant of LOX fused to GFP) (mouse) (UniProt P28301)
[3] = biological target: LOX-GFP (wild-type lysyl oxidase fused to GFP) (mouse) (UniProt P28301); remark: listed apart in the source
[4] = biological target: LOX^K314A-GFP (catalytically inactive mutant of LOX fused to GFP) (mouse) (UniProt P28301); remark: listed apart in the source

HTRA1 (high-temperature requirement A serine peptidase 1) (from UniProt Q92743 23-480) (enzyme)
binding [1]: binds | binding [2]: no binding

B1: Matrilin2 (MATN2) (protein, UniProt O00339 24-956)
chain: RERSRGRSISRGRHARTHPQTALLESSCENKRADLVFIIDSSRSVNTHDYAKVKEFIVDILQFLDIGPDVTRVGLLQYGSTVKNEFSLKTFKRKSEVERAVKRMRHLSTGTMTGLAIQYALNIAFSEAEGARPLRENVPRVIMIVTDGRPQDSVAEVAAKARDTGILIFAIGVGQVDFNTLKSIGSEPHEDHVFLVANFSQIETLTSVFQKKLCTAHMCSTLEHNCAHFCINIPGSYVCRCKQGYILNSDQTTCRIQDLCAMEDHNCEQLCVNVPGSFVCQCYSGYALAEDGKRCVAVDYCASENHGCEHECVNADGSYLCQCHEGFALNPDKKTCTKIDYCASSNHGCQHECVNTDDSYSCHCLKGFTLNPDKKTCRRINYCALNKPGCEHECVNMEESYYCRCHRGYTLDPNGKTCSRVDHCAQQDHGCEQLCLNTEDSFVCQCSEGFLINEDLKTCSRVDYCLLSDHGCEYSCVNMDRSFACQCPEGHVLRSDGKTCAKLDSCALGDHGCEHSCVSSEDSFVCQCFEGYILREDGKTCRRKDVCQAIDHGCEHICVNSDDSYTCECLEGFRLAEDGKRCRRKDVCKSTHHGCEHICVNNGNSYICKCSEGFVLAEDGRRCKKCTEGPIDLVFVIDGSKSLGEENFEVVKQFVTGIIDSLTISPKAARVGLLQYSTQVHTEFTLRNFNSAKDMKKAVAHMKYMGKGSMTGLALKHMFERSFTQGEGARPLSTRVPRAAIVFTDGRAQDDVSEWASKAKANGITMYAVGVGKAIEEELQEIASEPTNKHLFYAEDFSTMDEISEKLKKGICEALEDSDGRQDSPAGELPKTVQQPTESEPVTINIQDLLSCSNFAVQHRYLFEEDNLLRSTQKLSHSTKPSGSPLEEKHDQCKCENLIMFQNLANEEVRKLTQRLEEMTQRMEALENRLRYR
binding [3]: binds | binding [4]: binds
